Experimental data published in US20070128661A1 (Harvard, published 2007).
Results are given in words; binding and its absence hold for the method and conditions named. Binding seen in cells or lysates may run through a third protein. Some binding calls cover weakened binding; strength is not graded here.

The chains behind the UniProt entries cited, without tags or fusion partners.
UniProt Q04207: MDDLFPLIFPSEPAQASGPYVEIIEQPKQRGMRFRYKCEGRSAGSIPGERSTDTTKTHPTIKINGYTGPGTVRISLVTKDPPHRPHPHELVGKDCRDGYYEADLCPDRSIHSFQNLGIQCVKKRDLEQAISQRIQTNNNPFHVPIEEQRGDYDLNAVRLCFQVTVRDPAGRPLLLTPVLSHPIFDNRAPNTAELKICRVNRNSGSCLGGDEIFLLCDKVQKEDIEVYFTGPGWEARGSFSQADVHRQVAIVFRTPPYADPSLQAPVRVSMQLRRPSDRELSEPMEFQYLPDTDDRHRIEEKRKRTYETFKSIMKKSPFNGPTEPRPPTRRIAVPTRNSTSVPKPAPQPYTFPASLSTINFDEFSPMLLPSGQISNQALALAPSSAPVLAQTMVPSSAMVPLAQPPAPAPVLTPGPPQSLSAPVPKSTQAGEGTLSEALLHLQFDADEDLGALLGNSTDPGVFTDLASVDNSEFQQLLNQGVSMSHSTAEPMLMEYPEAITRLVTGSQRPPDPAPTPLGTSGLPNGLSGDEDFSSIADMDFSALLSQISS

Columns and labels:
[1] = target: T1, endogenous RelA in mouse Th1 cells (mouse, UniProt Q04207 1-549); test: coimmunoprecipitation of endogenous proteins from Th1 cells
[2] = target: T1, endogenous RelA in mouse Th1 cells; test: coimmunoprecipitation of endogenous proteins from developing Th1 cells; in the time course the association did not occur until day 3 and then persisted through day 6

binding [1]: binds
binding [2]: binds
B1: endogenous T-bet in mouse Th1 cells (other, UniProt Q9JKD8 1-530, looked up)
chain: MGIVEPGCGDMLTGTEPMPSDEGRGPGADQQHRFFYPEPGAQDPTDRRAGSSLGTPYSGGALVPAAPGRFLGSFAYPPRAQVAGFPGPGEFFPPPAGAEGYPPVDGYPAPDPRAGLYPGPREDYALPAGLEVSGKLRVALSNHLLWSKFNQHQTEMIITKQGRRMFPFLSFTVAGLEPTSHYRMFVDVVLVDQHHWRYQSGKWVQCGKAEGSMPGNRLYVHPDSPNTGAHWMRQEVSFGKLKLTNNKGASNNVTQMIVLQSLHKYQPRLHIVEVNDGEPEAACSASNTHVFTFQETQFIAVTAYQNAEITQLKIDNNPFAKGFRENFESMYASVDTSVPSPPGPNCQLLGGDPFSPLLSNQYPVPSRFYPDLPGQPKDMISQPYWLGTPREHSYEAEFRAVSMKPTLLPSAPGPTVPYYRGQDVLAPGAGWPVAPQYPPKMSPAGWFRPMRTLPMDPGLGSSEEQGSSPSLWPEVTSLQPEPSDSGLGEGDTKRRRISPYPSSGDSSSPAGAPSPFDKETEGQFYNYFPN
modifications: phosphoserine at S508 found by mass spectrometry in primary Th1 cells
